61 compounds from PubChem BioAssay AID2685 (National Center for Advancing Translational Sciences (NCATS), 2010) can be followed below.

Each structure is given as a SMILES string. Some of the results follow. Further columns of the screen follow, without active or inactive calls. Most of these compounds were active or inconclusive in the main read-out, so they are no random draw. The note in brackets gives the kind of curve behind each potency; many fits are weak.

This test in a line: qHTS Assay for Lipid Storage Modulators in Drosophila S3 Cells.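 For cell number change: cells counted by Cell Tracker Red CMTPX staining in the red channel.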 Conditions: BODIPY lipid droplet fluorescence, 18-24 h; for cell number change: measured here: cell count max response, cells fed with added oleic acid. An outline of the steps:
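Drosophila S3 cells got compounds at several concentrations plus oleic acid (400 uM solution). Laser-scanning cytometry with 488 nm excitation read lipid droplets at 500-530 nm and cells at 575-640 nm. Percent activity was relative to 20 uM Triacsin C.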

Where [1] appears, read: measured here: cell number channel AC50, cells fed with added oleic acid.
Setting [2] is: measured here: lipid fluorescence (Fed channel) AC50, cells fed with added oleic acid.

For `CCCn1c(=O)c2sccc2n2c(CCCC(=O)NCc3cccnc3)nnc12`, the cell number change was -3.61%. Moreover, under setting [1], the AC50 is 1.46 µM [rising, full curve, poor fit].
With `COc1ccc2oc(=O)c(C(=O)N3c4ccccc4CC3C)cc2c1` (stereo not drawn), the cell number change came to 55.5%. The AC50 under setting [1] is 29.1 µM [rising, single point].
`Cc1cc(C)c2c(=O)n(CC(=O)NC3CCCC3)sc2n1`: the cell number change is -36.1%.
As to `COc1ccc(NC(=O)C(C/C=C(/C)Cl)C(C)=O)cc1` (stereo not drawn), the cell number change stood at 18.6%. Further, under setting [2], the AC50 was 25.9 µM [rising, single point].
With `Cc1ccc(NC(=O)N2CCCC2C(=O)NCc2ccc(Cl)cc2)cc1` (stereo not drawn), the cell number change amounted to 6.3%. Further, under setting [2], the AC50 is 1.03 µM [falling, full curve].
For the compound `O=C(O)CSCC(=O)Nc1ccc(C(F)(F)F)cc1`, the cell number change came out at 164%.
For the compound `O=c1cc(N2CCCCC2)c(-c2ccccc2)nn1Cc1ccccc1`, the cell number change is -48.2%.
`O=C(Nc1ccc2c(c1)OCO2)Nc1ccc(Cl)cc1Cl`: the AC50 under setting [1] was 0.366 µM [rising, full curve] and the AC50 under setting [2] was 2.31 µM [rising, partial curve].
`COc1ccc(CC(=O)N2CCCc3ccccc32)cc1`: the cell number change came out at 1.51%. Also, the AC50 under setting [2] was 0.291 µM [falling, full curve, poor fit].
As to `C=CCn1c(Cc2cccs2)nnc1SCC(=O)c1ccc2ccccc2c1`, the cell number change amounted to 67.9%. Further, the AC50 under setting [1] is 9.2 µM [rising, partial curve]. For the same compound, under setting [2], the AC50 was 3.26 µM [rising, partial curve].
Regarding `Cc1ccc(C#CC[N+]2(CC#Cc3ccc(C)cc3)CCCCC2)cc1`, the cell number change was -32.3%. Moreover, under setting [1], the AC50 is 3.26 µM [falling, full curve, poor fit].
`Cc1cc(NC(=O)CSc2n[nH]c(=O)[nH]c2=O)ccc1Br`: the cell number change is 11.4%. Besides, under setting [1], the AC50 was 3.26 µM [falling, single point].
As for `COc1ccc(CN2CCCC2C(=O)Nc2ccc(OC)c(OC)c2)cc1OC` (stereo not drawn), the cell number change was -0.559%. Besides, the AC50 under setting [2] was 0.206 µM [falling, full curve].
For `CCOC(=O)c1sc(=NC(=O)/C=C/c2cccs2)n(C)c1C`, the cell number change turned out to be 53.2%. Also, under setting [1], the AC50 is 0.82 µM [rising, partial curve]. Moreover, the AC50 under setting [2] was 0.651 µM [rising, partial curve, poor fit].
For the compound `N/C(Cc1ccc([N+](=O)[O-])cc1)=N\OC(=O)COc1ccccc1Cl`, under setting [2], the AC50 is 2.06 µM [rising, partial curve].
Consider `O=C(NCc1ccc2c(c1)OCO2)C1CCCN(C(=O)c2ccc(Cl)cc2)C1` (stereo not drawn), for which the cell number change is 19.6%. Besides, under setting [2], the AC50 is 6.51 µM [rising, single point].
For the compound `CCCc1nnc(NC(=O)c2nc(S(=O)(=O)Cc3ccc(C)cc3)ncc2Cl)s1`, the cell number change is -6.52%. Moreover, the AC50 under setting [1] was 0.731 µM [falling, partial curve, poor fit].
Regarding `Cc1ccc(-n2ccc(=O)c(C(=O)Nc3ccc(S(=O)(=O)Nc4nccc(C)n4)cc3)n2)cc1`, the AC50 under setting [2] is 6.51 µM [rising, single point].
`CNc1c([N+](=O)[O-])cnn1-c1ccc(Cl)cc1Cl`: the cell number change was -0.149%. For the same compound, under setting [2], the AC50 was 0.0651 µM [falling, full curve, poor fit].
For the compound `O=C(CSc1nc2ccccc2o1)Nc1nccs1`, the cell number change is -13.9%. Besides, the AC50 under setting [2] was 0.731 µM [falling, partial curve, poor fit].
As for `COc1ccccc1C(=O)NCCC(=O)NCCCSc1ccccc1`, the cell number change stood at 39.8%. Besides, the AC50 under setting [1] is 16.4 µM [rising, single point].
Take `C=CCOc1ccc(/C=C/C(=O)OCC(=O)NC2CCCCCC2)cc1`: the cell number change worked out at 4.97%. Besides, the AC50 under setting [2] is 29.1 µM [rising, single point].
In the case of `CCOC(=O)c1ccccc1N/C=C/C(=O)c1cccs1`, the cell number change is -5.76%. Further, the AC50 under setting [2] was 9.2 µM [falling, partial curve, poor fit].
Consider `CN(CC(=O)Nc1ccccc1C(=O)NC1CC1)Cc1ccc(Cl)s1`, for which the cell number change was -16.1%. Moreover, the AC50 under setting [2] was 14.6 µM [falling, single point].
As to `Cc1c(Cl)c([N+](=O)[O-])nn1CCCC(=O)N(Cc1ccccc1)Cc1ccccc1`, the cell number change worked out at 10%.
Consider `CSCCC(NS(=O)(=O)c1ccccc1)C(=O)Nc1nccs1` (stereo not drawn), for which the cell number change was -1.81%. The AC50 under setting [2] was 0.517 µM [rising, full curve].
Regarding `COC(=O)c1cc(OC(=O)c2ccc(=O)[nH]c2)cc(C(=O)OC)c1`, the cell number change was 15.4%.
In the case of `CCCCn1c(=N)c(S(=O)(=O)c2ccc(Br)cc2)cc2c(=O)n3cccc(C)c3nc21`, the cell number change was 16.4%. The AC50 under setting [1] was 6.51 µM [rising, single point]. For the same compound, under setting [2], the AC50 is 2.91 µM [rising, single point].
As for `CCC(=O)NCCCNc1nc2c(C)cccc2cc1C#N`, the cell number change is 53.6%. Also, under setting [1], the AC50 was 16.4 µM [rising, partial curve].
As to `Cc1cccc(C)c1OCc1cc(C(=O)N2CCN(Cc3nccn3C)CC2)no1`, the cell number change was determined as 18.7%. In addition, under setting [2], the AC50 is 10.3 µM [rising, partial curve].
`Cc1ccc(C(=O)NCC(c2ccco2)N2CCc3ccccc32)cc1C` (stereo not drawn): the AC50 reads like this: under setting [1], 6.51 µM [rising, single point]; under setting [2], 6.51 µM [rising, single point].
For the compound `COc1cccc(/C=C(/C(=O)OCC(=O)NCC2CCCO2)c2ccccc2)c1` (stereo not drawn), the cell number change was 17.4%.
Consider `C=CCSc1nnc(NC(=O)Cn2cnc3c2c(=O)n(C)c(=O)n3C)s1`, for which the AC50 under setting [2] is 0.651 µM [falling, partial curve, poor fit].
As to `N#Cc1ccc(NC(=O)Cn2cnc([N+](=O)[O-])c2)cc1`, the cell number change was -10.1%. Further, the AC50 under setting [2] was 6.51 µM [rising, single point].
As for `O=C(Oc1ccc(-c2nnco2)cc1)c1ccco1`, the cell number change is -21.8%. In addition, the AC50 under setting [2] was 25.9 µM [rising, single point].
Turning to `CCCc1cc(N2CCCC(C(=O)NCc3ccc4c(c3)OCO4)C2)n2ncnc2n1` (stereo not drawn), the cell number change came to 11.5%. Moreover, the AC50 under setting [2] is 0.092 µM [rising, full curve, poor fit].
For the compound `Cc1cccc(C(=O)NNS(=O)(=O)c2ccc(F)cc2)c1O`, the cell number change is 12.9%. Also, the AC50 under setting [2] was 8.2 µM [rising, partial curve].
For the compound `CCC(C)(C)NC(=O)C1CC(=O)N(CCc2ccc(F)cc2)C1` (stereo not drawn), the AC50 under setting [2] is 29.1 µM [falling, single point].
For `CN1CCN(S(=O)(=O)c2ccc(NC(=O)c3cccs3)cc2)CC1`, the AC50 runs as follows: under setting [1], 0.164 µM [falling, partial curve, poor fit]; under setting [2], 0.13 µM [falling, full curve, poor fit].
As for `CCN1C(=O)[C@H]2[C@@H](c3ccc(-c4ccc(OC)cc4)cc3)N3CCC[C@@]3(C(=O)OC)[C@H]2C1=O`, the cell number change is -10.5%. The AC50 under setting [2] is 0.0731 µM [rising, full curve, poor fit].
For the compound `C=CCNC(=S)NNc1nc2c(c(=O)[nH]1)C1(CCCCC1)Cc1ccccc1-2`, the cell number change is -45.5%. Moreover, the AC50 under setting [1] was 14.6 µM [falling, single point].
In the case of `Cc1[nH]c2ccccc2c1N=Nc1cc(C(=O)O)cc(C(=O)O)c1`, the cell number change came out at 10.5%. The AC50 under setting [1] is 0.517 µM [falling, full curve].
As to `COc1ccc(CN(C)C(=O)c2cccc(NS(=O)(=O)c3ccccc3)c2)cc1F`, the cell number change is -32.4%. Further, the AC50 under setting [1] was 29.1 µM [falling, single point]. For the same compound, the AC50 under setting [2] was 6.51 µM [falling, single point].
Take `COc1ccc(CNCC(O)(c2ccccc2)c2ccc(Cl)cc2)cc1` (stereo not drawn): the cell number change was -135%. Moreover, the AC50 under setting [1] was 18.4 µM [falling, single point]. The AC50 under setting [2] is 6.51 µM [rising, partial curve, poor fit].
Turning to `CCCN(CC(=O)Nc1ccccc1C)C(=O)C1CC(=O)N(c2ccc(CC)cc2)C1` (stereo not drawn), the cell number change was determined as 4.51%. Also, under setting [2], the AC50 is 23.1 µM [falling, partial curve, poor fit].
On to `C/C(=N/NC(=O)c1ccoc1C)c1cccc(NC(=O)C2CC2)c1`, for which the cell number change is -5.39%. The AC50 under setting [2] was 0.164 µM [rising, full curve, poor fit].
For the compound `Cc1ccc(NNC(=S)Nc2ccc(C(C)C)cc2)c(C)c1`, the cell number change was -12.2%.
With `Nc1nc(=S)c2ncn(C3OC(CO)C(O)C3O)c2[nH]1` (stereo not drawn), the cell number change is -5.56%. Further, the AC50 under setting [2] was 29.1 µM [rising, single point].
Take `Cc1cccc(OC(C)C(=O)Nc2ccccc2C(=O)N2CCCCC2)c1` (stereo not drawn): the cell number change was -2.44%. In addition, the AC50 under setting [2] is 6.51 µM [rising, single point].
`Cc1nnc(SCC2=C(C(=O)O)N3C(=O)C(NC(=O)COc4ccccc4)C3SC2)s1` (stereo not drawn): the cell number change was 11%. In addition, the AC50 under setting [2] was 0.291 µM [rising, full curve, poor fit].
Turning to `CN(/N=C/c1cccnc1)c1cnc2ccccc2n1`, the cell number change is -66.9%.
Consider `CCOc1ccc(Oc2ccc(S(=O)(=O)N3CCOCC3)cc2NC(=O)C2=COCCO2)cc1`, for which the AC50 under setting [1] is 3.66 µM [rising, single point].
Turning to `O=C(COC(=O)Cc1ccccc1F)Nc1ccc(F)cc1F`, the cell number change was -17%. Besides, the AC50 under setting [2] was 22.4 µM [falling, single point].
With `O=C(Nc1nccs1)c1cc(-c2ccccc2)nc2ccccc12`, the cell number change is -4.15%. Besides, the AC50 under setting [2] was 1.64 µM [rising, partial curve].
For `O=C(Cc1ccccc1)NN1CCCCC1`, the cell number change is -1.8%. Further, the AC50 under setting [2] was 29.1 µM [rising, partial curve].
Regarding `Cc1cc(N2CCCC2)nc2ccccc12`, the cell number change was -41.5%. For the same compound, the AC50 under setting [1] is 11.6 µM [falling, partial curve, poor fit]. For the same compound, the AC50 under setting [2] was 10.3 µM [falling, partial curve].
Take `Cn1cccc1-c1nc2ccccc2n1C`: the cell number change is -16.7%. The AC50 under setting [2] is 3.66 µM [falling, full curve, poor fit].
On to `CCOc1ccccc1C1c2[nH]c3ccccc3c2C[C@H]2C(=O)N(C3CCN(Cc4ccccc4)CC3)CC(=O)N12` (stereo partly drawn), for which the cell number change worked out at 137%. Also, the AC50 under setting [2] was 0.651 µM [rising, single point].
Turning to `COc1cccc(CN2CCN(C(=O)CC(C)C)CC2)c1`, the cell number change came to 13%.
`CCn1cc(CN2CCC(C(=O)Nc3ccc(Oc4ccccc4F)cc3)CC2)c(C)n1`: the cell number change is 2.09%.
`O=c1c2cc(Cl)ccc2oc2nc3n(c(=O)c12)CCCS3`: the AC50 is 1.3 µM [rising, full curve] under setting [1] and 0.82 µM [rising, full curve] under setting [2].

As a reminder, the AC50 is the concentration at which the activity in the assay is half-maximal.
